# Test results reported in the supplement of paper PMC12819154, “High-throughput peptide-centric local stability assay extends protein–ligand identification to membrane proteins, tissues and bacteria” (Nature Structural & Molecular Biology, 2025).
# Chains of the proteins cited; added tags and fusions are not shown. Lines headed by an entry give the natural chain unless they say otherwise; changes in a name come on top.
# UniProt Q16385, whole entry: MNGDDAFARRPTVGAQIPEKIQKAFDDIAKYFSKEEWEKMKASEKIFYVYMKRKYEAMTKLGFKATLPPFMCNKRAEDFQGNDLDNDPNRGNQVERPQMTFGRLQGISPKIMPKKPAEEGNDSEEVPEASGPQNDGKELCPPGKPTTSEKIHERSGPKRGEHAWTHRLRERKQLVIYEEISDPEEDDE
# UniProt Q15404: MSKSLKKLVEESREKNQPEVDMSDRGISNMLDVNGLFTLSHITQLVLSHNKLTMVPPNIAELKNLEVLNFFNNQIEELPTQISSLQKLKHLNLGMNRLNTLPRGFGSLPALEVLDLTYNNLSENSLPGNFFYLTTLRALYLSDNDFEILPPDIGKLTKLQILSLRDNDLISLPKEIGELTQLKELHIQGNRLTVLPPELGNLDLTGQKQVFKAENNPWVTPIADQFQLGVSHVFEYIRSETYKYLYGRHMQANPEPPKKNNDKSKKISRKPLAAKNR
# UniProt Q15417: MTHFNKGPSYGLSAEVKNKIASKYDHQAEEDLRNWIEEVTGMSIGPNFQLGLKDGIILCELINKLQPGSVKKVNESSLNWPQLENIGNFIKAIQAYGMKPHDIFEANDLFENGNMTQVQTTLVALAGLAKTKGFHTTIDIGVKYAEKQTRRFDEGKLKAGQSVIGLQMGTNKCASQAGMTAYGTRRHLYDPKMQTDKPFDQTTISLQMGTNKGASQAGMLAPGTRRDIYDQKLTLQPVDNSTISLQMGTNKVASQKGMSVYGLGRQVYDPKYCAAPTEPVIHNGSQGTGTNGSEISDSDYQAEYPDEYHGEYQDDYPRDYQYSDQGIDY
# UniProt Q15649: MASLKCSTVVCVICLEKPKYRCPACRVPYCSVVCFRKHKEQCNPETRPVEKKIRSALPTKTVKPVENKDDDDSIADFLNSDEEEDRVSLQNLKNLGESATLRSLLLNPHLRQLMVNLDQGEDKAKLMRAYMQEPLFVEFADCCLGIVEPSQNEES
# UniProt Q2VIR3, whole entry: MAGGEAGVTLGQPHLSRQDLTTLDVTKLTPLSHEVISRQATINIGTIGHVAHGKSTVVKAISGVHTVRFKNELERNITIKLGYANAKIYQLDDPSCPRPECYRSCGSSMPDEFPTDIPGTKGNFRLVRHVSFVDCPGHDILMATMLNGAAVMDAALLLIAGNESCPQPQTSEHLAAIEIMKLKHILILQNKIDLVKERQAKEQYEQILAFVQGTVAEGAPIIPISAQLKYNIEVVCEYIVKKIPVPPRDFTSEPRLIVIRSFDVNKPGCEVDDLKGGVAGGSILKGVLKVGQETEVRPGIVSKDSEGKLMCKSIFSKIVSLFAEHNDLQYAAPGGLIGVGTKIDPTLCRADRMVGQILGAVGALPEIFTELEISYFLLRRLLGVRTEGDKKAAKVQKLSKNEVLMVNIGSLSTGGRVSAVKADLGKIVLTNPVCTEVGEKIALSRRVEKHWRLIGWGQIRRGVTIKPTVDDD
# UniProt Q15398: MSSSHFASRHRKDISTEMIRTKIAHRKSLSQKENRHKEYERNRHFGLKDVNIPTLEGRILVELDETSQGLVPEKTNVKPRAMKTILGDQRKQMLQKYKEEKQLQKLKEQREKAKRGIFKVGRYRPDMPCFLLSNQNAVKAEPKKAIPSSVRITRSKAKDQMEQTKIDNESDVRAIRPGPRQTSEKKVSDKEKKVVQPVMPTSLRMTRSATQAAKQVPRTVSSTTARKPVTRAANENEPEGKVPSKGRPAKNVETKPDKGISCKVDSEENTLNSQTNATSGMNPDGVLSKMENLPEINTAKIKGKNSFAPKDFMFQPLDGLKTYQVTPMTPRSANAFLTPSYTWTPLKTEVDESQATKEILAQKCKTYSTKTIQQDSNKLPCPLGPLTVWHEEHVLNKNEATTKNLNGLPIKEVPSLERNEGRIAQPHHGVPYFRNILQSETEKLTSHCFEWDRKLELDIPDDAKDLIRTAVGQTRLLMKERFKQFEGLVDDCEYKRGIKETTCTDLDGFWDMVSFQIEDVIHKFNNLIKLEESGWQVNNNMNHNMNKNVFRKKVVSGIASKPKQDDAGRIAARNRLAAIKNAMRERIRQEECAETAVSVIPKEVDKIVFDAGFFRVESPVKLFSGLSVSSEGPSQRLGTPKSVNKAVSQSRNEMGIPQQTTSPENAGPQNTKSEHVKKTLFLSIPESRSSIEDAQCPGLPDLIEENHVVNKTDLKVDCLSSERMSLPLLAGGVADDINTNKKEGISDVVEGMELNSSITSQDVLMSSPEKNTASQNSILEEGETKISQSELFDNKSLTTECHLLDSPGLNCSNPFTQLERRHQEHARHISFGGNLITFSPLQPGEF
# UniProt Q16537, whole entry: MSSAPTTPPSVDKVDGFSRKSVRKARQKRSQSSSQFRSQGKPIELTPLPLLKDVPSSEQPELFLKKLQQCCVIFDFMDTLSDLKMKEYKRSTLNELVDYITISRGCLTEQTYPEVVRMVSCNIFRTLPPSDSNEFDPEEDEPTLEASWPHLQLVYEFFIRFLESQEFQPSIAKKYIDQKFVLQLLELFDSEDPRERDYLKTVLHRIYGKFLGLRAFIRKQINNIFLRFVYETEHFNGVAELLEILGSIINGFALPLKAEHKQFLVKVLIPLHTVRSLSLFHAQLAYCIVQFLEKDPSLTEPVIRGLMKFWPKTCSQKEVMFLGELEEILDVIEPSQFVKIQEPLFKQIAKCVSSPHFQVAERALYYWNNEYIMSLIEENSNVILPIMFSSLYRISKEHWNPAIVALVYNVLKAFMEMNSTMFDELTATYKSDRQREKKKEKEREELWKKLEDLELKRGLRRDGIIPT
# UniProt Q15906, whole entry: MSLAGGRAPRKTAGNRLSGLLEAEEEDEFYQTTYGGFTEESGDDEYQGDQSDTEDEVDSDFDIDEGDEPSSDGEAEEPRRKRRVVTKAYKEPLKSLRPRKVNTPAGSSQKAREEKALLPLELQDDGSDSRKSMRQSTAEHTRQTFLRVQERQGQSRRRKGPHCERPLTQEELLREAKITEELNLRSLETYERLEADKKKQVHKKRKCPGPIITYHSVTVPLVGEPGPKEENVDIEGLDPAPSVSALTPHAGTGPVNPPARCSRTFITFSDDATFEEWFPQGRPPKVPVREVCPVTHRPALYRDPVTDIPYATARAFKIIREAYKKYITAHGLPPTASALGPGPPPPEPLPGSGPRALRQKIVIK
# UniProt Q2NL98: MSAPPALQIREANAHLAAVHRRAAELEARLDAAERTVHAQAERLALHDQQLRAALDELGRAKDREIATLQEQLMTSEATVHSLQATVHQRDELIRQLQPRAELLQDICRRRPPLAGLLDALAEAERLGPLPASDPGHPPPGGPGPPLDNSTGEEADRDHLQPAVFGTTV
# UniProt Q15185: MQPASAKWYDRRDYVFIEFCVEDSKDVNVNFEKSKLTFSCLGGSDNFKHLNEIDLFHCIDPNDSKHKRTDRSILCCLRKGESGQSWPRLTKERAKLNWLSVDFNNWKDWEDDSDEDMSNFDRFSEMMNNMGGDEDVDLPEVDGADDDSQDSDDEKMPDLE
# UniProt Q16514: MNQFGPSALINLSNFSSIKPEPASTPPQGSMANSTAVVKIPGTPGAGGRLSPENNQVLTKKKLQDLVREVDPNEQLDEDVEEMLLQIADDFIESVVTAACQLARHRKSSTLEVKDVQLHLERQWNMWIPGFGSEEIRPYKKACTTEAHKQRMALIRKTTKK
# UniProt Q32M78: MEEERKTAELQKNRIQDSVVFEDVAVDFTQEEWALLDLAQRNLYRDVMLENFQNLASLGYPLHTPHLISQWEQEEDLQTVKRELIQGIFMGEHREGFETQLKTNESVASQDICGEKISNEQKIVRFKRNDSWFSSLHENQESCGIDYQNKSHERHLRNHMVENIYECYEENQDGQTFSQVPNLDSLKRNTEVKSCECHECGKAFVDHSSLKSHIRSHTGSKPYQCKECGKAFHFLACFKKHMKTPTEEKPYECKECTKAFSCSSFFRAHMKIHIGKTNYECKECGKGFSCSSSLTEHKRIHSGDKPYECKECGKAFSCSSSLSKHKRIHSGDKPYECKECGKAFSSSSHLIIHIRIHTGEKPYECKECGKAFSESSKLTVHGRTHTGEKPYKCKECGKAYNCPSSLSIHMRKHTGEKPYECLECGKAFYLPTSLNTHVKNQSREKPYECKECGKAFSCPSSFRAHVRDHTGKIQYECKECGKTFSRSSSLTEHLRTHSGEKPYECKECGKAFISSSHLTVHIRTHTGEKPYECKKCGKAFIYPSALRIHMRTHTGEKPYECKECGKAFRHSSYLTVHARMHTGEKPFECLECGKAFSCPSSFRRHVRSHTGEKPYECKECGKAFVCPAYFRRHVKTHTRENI
# UniProt Q17RN3: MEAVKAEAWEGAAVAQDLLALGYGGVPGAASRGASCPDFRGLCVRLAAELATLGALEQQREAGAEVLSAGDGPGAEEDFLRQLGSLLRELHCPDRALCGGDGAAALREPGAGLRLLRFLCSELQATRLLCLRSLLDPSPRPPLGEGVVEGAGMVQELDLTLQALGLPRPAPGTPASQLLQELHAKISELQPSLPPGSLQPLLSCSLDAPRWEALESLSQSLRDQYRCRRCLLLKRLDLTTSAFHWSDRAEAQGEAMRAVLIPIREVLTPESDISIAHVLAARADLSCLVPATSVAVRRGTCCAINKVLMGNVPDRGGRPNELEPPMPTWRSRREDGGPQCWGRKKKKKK
# UniProt Q3KRA9: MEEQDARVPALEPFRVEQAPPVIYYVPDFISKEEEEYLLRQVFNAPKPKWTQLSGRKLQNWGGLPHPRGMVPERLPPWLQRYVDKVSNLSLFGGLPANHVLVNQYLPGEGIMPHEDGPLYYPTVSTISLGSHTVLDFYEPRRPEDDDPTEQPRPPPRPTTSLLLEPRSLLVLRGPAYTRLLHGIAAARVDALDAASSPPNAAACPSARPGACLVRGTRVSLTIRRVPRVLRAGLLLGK
# UniProt Q30KQ5: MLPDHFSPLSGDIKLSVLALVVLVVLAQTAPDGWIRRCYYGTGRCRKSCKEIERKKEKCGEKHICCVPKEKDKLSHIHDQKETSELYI
# UniProt Q16698: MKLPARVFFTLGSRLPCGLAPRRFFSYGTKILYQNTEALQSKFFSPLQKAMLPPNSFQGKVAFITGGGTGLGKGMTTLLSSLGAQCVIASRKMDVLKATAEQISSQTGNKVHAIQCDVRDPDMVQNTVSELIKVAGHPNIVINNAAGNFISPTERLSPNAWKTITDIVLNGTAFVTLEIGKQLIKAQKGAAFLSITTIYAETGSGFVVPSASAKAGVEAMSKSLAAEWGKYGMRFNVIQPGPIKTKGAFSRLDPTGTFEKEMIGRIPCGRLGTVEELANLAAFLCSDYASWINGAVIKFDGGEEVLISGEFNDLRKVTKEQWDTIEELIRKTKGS
# UniProt Q15637: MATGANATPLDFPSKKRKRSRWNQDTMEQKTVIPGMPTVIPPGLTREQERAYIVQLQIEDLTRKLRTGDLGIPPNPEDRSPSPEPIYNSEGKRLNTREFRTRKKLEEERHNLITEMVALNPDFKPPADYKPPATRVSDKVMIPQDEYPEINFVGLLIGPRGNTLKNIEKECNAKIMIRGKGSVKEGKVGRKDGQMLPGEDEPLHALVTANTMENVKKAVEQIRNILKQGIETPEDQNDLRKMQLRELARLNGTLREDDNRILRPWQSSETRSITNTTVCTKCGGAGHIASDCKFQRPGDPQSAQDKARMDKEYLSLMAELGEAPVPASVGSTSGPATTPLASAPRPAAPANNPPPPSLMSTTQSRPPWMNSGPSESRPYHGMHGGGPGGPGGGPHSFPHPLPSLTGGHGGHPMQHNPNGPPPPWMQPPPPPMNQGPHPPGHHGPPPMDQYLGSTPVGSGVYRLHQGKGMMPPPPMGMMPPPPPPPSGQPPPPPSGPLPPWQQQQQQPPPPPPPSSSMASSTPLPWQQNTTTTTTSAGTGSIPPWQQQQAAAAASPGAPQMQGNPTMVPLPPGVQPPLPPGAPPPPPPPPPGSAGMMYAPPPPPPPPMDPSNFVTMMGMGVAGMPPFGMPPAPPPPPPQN
# UniProt Q15121, whole entry: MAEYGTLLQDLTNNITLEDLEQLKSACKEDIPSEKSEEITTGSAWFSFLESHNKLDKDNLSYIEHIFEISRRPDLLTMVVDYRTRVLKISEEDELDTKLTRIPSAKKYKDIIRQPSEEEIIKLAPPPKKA
# UniProt Q15942: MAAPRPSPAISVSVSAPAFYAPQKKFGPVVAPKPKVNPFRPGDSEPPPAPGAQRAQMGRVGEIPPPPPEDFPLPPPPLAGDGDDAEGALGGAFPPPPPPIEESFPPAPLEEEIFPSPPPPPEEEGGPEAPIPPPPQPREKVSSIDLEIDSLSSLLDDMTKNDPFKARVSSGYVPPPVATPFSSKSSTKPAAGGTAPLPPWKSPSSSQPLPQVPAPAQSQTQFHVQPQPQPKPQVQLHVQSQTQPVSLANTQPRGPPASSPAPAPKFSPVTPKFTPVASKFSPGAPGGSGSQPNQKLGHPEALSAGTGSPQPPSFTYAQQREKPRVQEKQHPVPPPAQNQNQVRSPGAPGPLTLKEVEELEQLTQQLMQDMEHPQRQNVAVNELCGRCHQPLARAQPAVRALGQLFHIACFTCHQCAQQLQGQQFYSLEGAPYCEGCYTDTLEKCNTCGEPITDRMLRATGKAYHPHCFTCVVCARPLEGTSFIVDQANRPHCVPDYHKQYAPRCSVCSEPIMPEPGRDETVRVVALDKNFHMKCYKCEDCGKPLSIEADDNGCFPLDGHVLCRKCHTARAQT
# This is one part of the list. Small differences around the control level are noise.
# Compound: Cc1nc(Nc2ncc(C(=O)Nc3c(C)cccc3Cl)s2)cc(N2CCN(CCO)CC2)n1 [dasatinib]
# Experiment: log2 fold change of tryptic peptide abundance, ligand vs vehicle (limited proteolysis) (log2 ratio); higher = more trypsin-susceptible (destabilized)
# Settings: ligand concentration: 5 uM; sample: K562 cleared lysate
row,Target,log2 fold change
1,"SSX2 (peptide sequence: RPTVGAQIPEKIQK, peptide start residue: 10) (UniProt Q16385)",-0.137
2,"RSU1 (peptide sequence: EIGELTQLK, peptide start residue: 175) (UniProt Q15404)",-0.127
3,"PDS5A (peptide sequence: NIDPVKNK, peptide start residue: 1212) (UniProt Q29RF7)",-0.161
4,"CNN3 (peptide sequence: GPSYGLSAEVK, peptide start residue: 9) (UniProt Q15417)",0.0554
5,"HERC3 (peptide sequence: GYWAAHSGQLSAR, peptide start residue: 343) (UniProt Q15034)",0.0823
6,"MAPKAPK3 (peptide sequence: LTDFGFAK, peptide start residue: 205) (UniProt Q16644)",0.192
7,"ZNHIT3 (peptide sequence: QLMVNLDQGEDKAK, peptide start residue: 112) (UniProt Q15649)",-0.33
8,"KIZ (peptide sequence: EQEVSSGCGDKSKK, peptide start residue: 536) (UniProt Q2M2Z5)",0.985
9,"RALBP1 (peptide sequence: QIASEKEEIER, peptide start residue: 506) (UniProt Q15311)",-0.24
10,"UniProt Q15631 (peptide sequence: YDGLKYDVK, peptide start residue: 195)",0.268
11,"UniProt Q15928 (peptide sequence: CGHDNLQLR, peptide start residue: 30)",-0.303
12,"UniProt Q15831 (peptide sequence: IDSTEVIYQPR, peptide start residue: 29)",0.105
13,"UniProt Q2VIR3 (peptide sequence: HILILQNKIDLVK, peptide start residue: 184)",0.758
14,"RFX7 (peptide sequence: TPQNVPASPGGDR, peptide start residue: 314) (UniProt Q2KHR2)",0.467
15,"DLGAP5 (peptide sequence: TLFLSIPESR, peptide start residue: 679) (UniProt Q15398)",-0.134
16,"ACOX1 (peptide sequence: TSNHAIVLAQLITK, peptide start residue: 183) (UniProt Q15067)",0.204
17,"PPP2R5E (peptide sequence: LEDLELKR, peptide start residue: 450) (UniProt Q16537)",0.464
18,"TXNRD1 (peptide sequence: LMHQAALLGQALQDSR, peptide start residue: 219) (UniProt Q16881)",0.462
19,"VPS72 (peptide sequence: SLETYER, peptide start residue: 186) (UniProt Q15906)",0.0905

# Nothing new here: entries from further up.
row,Target,log2 fold change
13,"UniProt Q2VIR3 (peptide sequence: HILILQNKIDLVK, peptide start residue: 184)",0.758
14,"RFX7 (peptide sequence: TPQNVPASPGGDR, peptide start residue: 314) (UniProt Q2KHR2)",0.467

# More entries.

row,Target,log2 fold change
1,"VMAC (peptide sequence: LALHDQQLR, peptide start residue: 44) (UniProt Q2NL98)",0.228
2,"UniProt Q16352 (peptide sequence: EYQDLLNVK, peptide start residue: 382)",-0.0894
3,"TAF11 (peptide sequence: VDEDEIQK, peptide start residue: 98) (UniProt Q15544)",0.175
4,"PTGES3 (peptide sequence: HLNEIDLFHCIDPNDSK, peptide start residue: 49) (UniProt Q15185)",0.0971
5,"TAF12 (peptide sequence: IPGTPGAGGR, peptide start residue: 40) (UniProt Q16514)",-0.203
6,"UniProt Q32M78 (peptide sequence: KHMKTPTEEK, peptide start residue: 240)",0.0753
7,"FAM98C (peptide sequence: ALCGGDGAAALREPGAGLR, peptide start residue: 96) (UniProt Q17RN3)",0.186
8,"ALKBH6 (peptide sequence: LLHGIAAAR, peptide start residue: 180) (UniProt Q3KRA9)",-0.778
9,"SKIV2L (peptide sequence: GYYAAVEAK, peptide start residue: 517) (UniProt Q15477)",-0.498
10,"ZNF800 (peptide sequence: YEVADVGIEVK, peptide start residue: 600) (UniProt Q2TB10)",-0.427
11,"UniProt Q30KQ5 (peptide sequence: SCKEIER, peptide start residue: 48)",-0.0976
12,"DECR1 (peptide sequence: LDPTGTFEK, peptide start residue: 252) (UniProt Q16698)",0.105
13,"E2F4 (peptide sequence: AEIEELQQR, peptide start residue: 102) (UniProt Q16254)",-0.142
14,"SF1 (peptide sequence: GNTLKNIEKECNAK, peptide start residue: 161) (UniProt Q15637)",-0.388
15,"PEA15 (peptide sequence: RPDLLTMVVDYR, peptide start residue: 72) (UniProt Q15121)",0.116
16,"ZYX (peptide sequence: SSTKPAAGGTAPLPPWK, peptide start residue: 185) (UniProt Q15942)",0.2
17,"TRIP10 (peptide sequence: TEVEQAYAK, peptide start residue: 36) (UniProt Q15642)",-0.26
18,"SETDB1 (peptide sequence: AVTNCESLVKDFYSK, peptide start residue: 88) (UniProt Q15047)",0.185
